Results taken from patent US6156511A, “Peptide library and screening method” (Affymax Technologies N.V., priority 1998, dated 2000).
For some of these results: Where cells or extracts were used, other partners may take part. For some of these results: The exact form of at least one protein or probe is not confirmed. For some of these results: Negatives hold for the conditions tested.

Key:
[1] = target: headpiece dimer B7 (non-mutant) (Escherichia coli) (UniProt P03023); assay: activity assay; details: panning Exp. 3; 0.64 and 1.24 under basal induction; protein in a lysate after overexpression; only the site is given
[2] = target: Lac repressor (LacI)-peptide fusion, full length (Escherichia coli) (UniProt P03023); assay: binding assay; details: specific binding of lacI to 32P-labeled lacOs-containing fragments; protein in a lysate after overexpression; only the site is given
[3] = target: headpiece dimer A4.5 (mutant) Q18R (second headpiece) (Escherichia coli) (UniProt P03023); assay: binding assay; details: no specific binding to 32P plasmid fragments; protein in a lysate after overexpression; only the site is given
[4] = target: headpiece dimer B7 (non-mutant) (Escherichia coli) (UniProt P03023); assay: binding assay; details: no specific binding to 32P plasmid fragments; protein in a lysate after overexpression; only the site is given

## AATTGTGAGCGCTCACAATT (double strand)
[1]
  activity on this sequence (fold enrichment): 10
[2]
  binding result: binds
[3]
  binding result: no binding
[4]
  binding result: no binding
